Publication PMC4231161
Results are given in words; binding and its absence hold for the method and conditions named. In cells and extracts the contact can be indirect. Binding calls can cover weak binding; strength is not graded here. Where a sequence is shown, tags or fusion partners need not be part of it.

How the values were obtained:
[1] = biological target: T1, KI-GAP45Ty (GAP45 Ty-tagged at the endogenous locus) (Toxoplasma gondii) (UniProt Q7Z289); assay: co-IP; [35S]-methionine/cysteine labelled tachyzoites lysed in CoIP buffer (1% Triton X-100, 50 mM Tris-HCl pH 8, 150 mM NaCl); tagged bait precipitated with monoclonal anti-Ty or anti-Myc and Protein A-Sepharose, 4 C; eluted proteins seen by autoradiography; also in MyoC-KO background and in GAP45-iKO +/- ATc
T1 sequence: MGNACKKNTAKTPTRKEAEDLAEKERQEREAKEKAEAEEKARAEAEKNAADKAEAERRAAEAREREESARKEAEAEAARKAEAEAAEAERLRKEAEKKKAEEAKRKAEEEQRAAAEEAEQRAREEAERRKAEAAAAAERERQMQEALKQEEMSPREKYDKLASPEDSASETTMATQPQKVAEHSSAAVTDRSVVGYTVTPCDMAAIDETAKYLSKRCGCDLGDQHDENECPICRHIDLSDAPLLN

[2] = biological target: T2, GAP45Ty (second copy of GAP45 with a Ty tag) (Toxoplasma gondii) (UniProt Q7Z289); assay: as above
T2 sequence: T1 sequence

Row | Substance | binding [1] | binding [2]
1 | myosin C (MyoC) | no binding | –
2 | myosin light chain 1 (MLC1) | binds | binds
